The subject of the assay is HepG2 cells. As to the kind of experiment: cells. The following applies: Homo sapiens, HepG2, 4 h, read-out: APOPTOSIS Caspase-3 activation EC50.

The values below come from patent US8114862B2, “TGR5 modulators and methods of use thereof” (Intercept Pharmaceuticals, Inc., priority 2008, dated 2012).

Take `CN[C@@H]1C[C@H]2O[C@@](C)([C@@H]1OC)n1c3ccccc3c3c4c(c5c6ccccc6n2c5c31)C(=O)NC4` [Staurosporine]: the concentration for a half-maximal effect (EC50) (in general, the concentration giving half of the maximal effect) was determined as 3 µM.
